From the supplement of paper PMC8728848
Some of the results follow.

Columns and labels:
Test in all cases: glycan array binding signal (z-score within array); higher = stronger binding
Details in all cases: glycan notation: IUPAC condensed, linker removed
Gal(b1-4)Glc = biological target: Gal(b1-4)Glc
In short: (§1)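 The binding signal is a Z-score computed within each array and averaged over linkers. Arrays of the same protein sequence at different concentrations or buffers were also averaged together. Data originate from 3228 arrays in the Consortium for Functional Glycomics database, kept only where the protein sequence was available.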

Gal(b1-4)Glc6S = biological target: Gal(b1-4)Glc6S
In short: as §1

Gal(b1-4)GlcNAc = biological target: Gal(b1-4)GlcNAc
In short: as §1

[1] = biological target: Gal(b1-4)GlcNAc(a1-6)Gal(b1-4)GlcNAc
In short: as §1

Gal(b1-4)GlcNAc(b1-2)Man = biological target: Gal(b1-4)GlcNAc(b1-2)Man
In short: as §1

[2] = biological target: Gal(b1-4)GlcNAc(b1-2)Man(a1-3)Man(b1-4)GlcNAc(b1-4)GlcNAc
In short: as §1

[3] = biological target: Gal(b1-4)GlcNAc(b1-2)Man(a1-3)[Gal(b1-4)GlcNAc(b1-2)Man(a1-6)]Man(b1-4)GlcNAc(b1-4)GlcNAc
In short: as §1

[4] = biological target: Gal(b1-4)GlcNAc(b1-2)Man(a1-3)[Gal(b1-4)GlcNAc(b1-2)Man(a1-6)]Man(b1-4)GlcNAc(b1-4)[Fuc(a1-6)]GlcNAc
In short: as §1

[5] = biological target: Gal(b1-4)GlcNAc(b1-2)Man(a1-3)[Gal(b1-4)GlcNAc(b1-2)Man(a1-6)][Gal(b1-4)GlcNAc(b1-4)]Man(b1-4)GlcNAc(b1-4)[Fuc(a1-6)]GlcNAc
In short: as §1

[6] = biological target: Gal(b1-4)GlcNAc(b1-2)Man(a1-3)[Gal(b1-4)GlcNAc(b1-2)Man(a1-6)][GlcNAc(b1-4)]Man(b1-4)GlcNAc(b1-4)[Fuc(a1-6)]GlcNAc
In short: as §1

[7] = biological target: Gal(b1-4)GlcNAc(b1-2)Man(a1-3)[GlcNAc(b1-2)Man(a1-6)]Man(b1-4)GlcNAc(b1-4)GlcNAc
In short: as §1

[8] = biological target: Gal(b1-4)GlcNAc(b1-2)Man(a1-3)[GlcNAc(b1-4)][Gal(b1-4)GlcNAc(b1-2)Man(a1-6)]Man(b1-4)GlcNAc(b1-4)GlcNAc
In short: as §1

[9] = biological target: Gal(b1-4)GlcNAc(b1-2)Man(a1-3)[Man(a1-6)]Man(b1-4)GlcNAc(b1-4)GlcNAc
In short: as §1

[10] = biological target: Gal(b1-4)GlcNAc(b1-2)Man(a1-6)Man(b1-4)GlcNAc(b1-4)GlcNAc
In short: as §1

[11] = biological target: Gal(b1-4)GlcNAc(b1-2)Man(a1-6)[GlcNAc(b1-2)Man(a1-3)]Man(b1-4)GlcNAc(b1-4)GlcNAc
In short: as §1

[12] = biological target: Gal(b1-4)GlcNAc(b1-2)Man(a1-6)[Man(a1-3)]Man(b1-4)GlcNAc(b1-4)GlcNAc
In short: as §1

[13] = biological target: Gal(b1-4)GlcNAc(b1-2)[Gal(b1-4)GlcNAc(b1-4)]Man(a1-3)[Gal(b1-4)GlcNAc(b1-2)Man(a1-6)]Man(b1-4)GlcNAc(b1-4)GlcNAc
In short: as §1

[14] = biological target: Gal(b1-4)GlcNAc(b1-2)[Gal(b1-4)GlcNAc(b1-4)]Man(a1-3)[Gal(b1-4)GlcNAc(b1-2)[Gal(b1-4)GlcNAc(b1-6)]Man(a1-6)]Man(b1-4)GlcNAc(b1-4)GlcNAc
In short: as §1

[15] = biological target: Gal(b1-4)GlcNAc(b1-2)[Gal(b1-4)GlcNAc(b1-4)]Man(a1-3)[GlcNAc(b1-4)][Gal(b1-4)GlcNAc(b1-2)Man(a1-6)]Man(b1-4)GlcNAc(b1-4)GlcNAc
In short: as §1

[16] = biological target: Gal(b1-4)GlcNAc(b1-2)[Gal(b1-4)GlcNAc(b1-4)]Man(a1-3)[GlcNAc(b1-4)][Gal(b1-4)GlcNAc(b1-2)[Gal(b1-4)GlcNAc(b1-6)]Man(a1-6)]Man(b1-4)GlcNAc(b1-4)GlcNAc
In short: as §1

[17] = biological target: Gal(b1-4)GlcNAc(b1-2)[Gal(b1-4)GlcNAc(b1-6)]Man(a1-6)[Gal(b1-4)GlcNAc(b1-2)Man(a1-3)]Man(b1-4)GlcNAc(b1-4)GlcNAc
In short: as §1

[18] = biological target: Gal(b1-4)GlcNAc(b1-2)[Gal(b1-4)GlcNAc(b1-6)]Man(a1-6)[Gal(b1-4)GlcNAc(b1-2)Man(a1-3)]Man(b1-4)GlcNAc(b1-4)[Fuc(a1-6)]GlcNAc
In short: as §1

B1: SJCP3842 (Schistosoma japonicum) (protein)
chain: MFKMRIINLVNISTVLLLINLLQTKSRLVGKENGFMLTVSIYGAQLSDKMTSVPVSWTIDYEDPEKSAFKKLVTDSCDTFSEYVKSQIPKGSVDGQCTSHIFQRPGSGSGVSISLTLSFIYVDVTQPDTVALKTELEKHFANFVTIHSHKITQAQFRINQKAIVIPTGDKDAIDGSKWKIIAIIALVALAIVVIGGFIYICVK
Q: What does the source list for B1?
A: glycan array binding signal (z-score) (Gal(b1-4)Glc): -1.59; glycan array binding signal (z-score) (Gal(b1-4)Glc6S): 0.436; glycan array binding signal (z-score) (Gal(b1-4)GlcNAc): 0.516; glycan array binding signal (z-score) [1]: -0.812; glycan array binding signal (z-score) (Gal(b1-4)GlcNAc(b1-2)Man): -0.281; glycan array binding signal (z-score) [2]: -0.919; glycan array binding signal (z-score) [3]: 0.013; glycan array binding signal (z-score) [4]: 0.665; glycan array binding signal (z-score) [5]: -0.855; glycan array binding signal (z-score) [6]: 0.433; glycan array binding signal (z-score) [7]: -0.747; glycan array binding signal (z-score) [8]: 0.997; glycan array binding signal (z-score) [9]: -0.204; glycan array binding signal (z-score) [10]: 1.27; glycan array binding signal (z-score) [11]: -0.921; glycan array binding signal (z-score) [12]: 0.841; glycan array binding signal (z-score) [13]: -1.14; glycan array binding signal (z-score) [14]: -0.482; glycan array binding signal (z-score) [15]: -0.392; glycan array binding signal (z-score) [16]: 0.354; glycan array binding signal (z-score) [17]: -0.486; glycan array binding signal (z-score) [18]: -0.911
